From patent US8598114B2, “Antimicrobial compounds” (priority 2007, dated 2013)
Part of at least one peptide drawing is inferred or uncertain, most often the ends.

Key:
[1] = tested on: Candida (Issatchenkia) krusei; test: MIC, CLSI microbroth dilution (yeasts); format: cell-based; details: F05 Candida (Issatchenkia) krusei ATCC 6258 reference strain, repeat results (Table 2), RPMI 1640
Experimental: (§1) M27-A2 Vol. 22 No. 15 Reference Method for Broth Dilution Antifungal Susceptibility Testing of Yeasts; Approved Standard-Second Edition.
(§2) Yeast and filamentous fungal MIC were performed in MOPS buffered RPMI 1640 medium (MOPS buffer obtained from Sigma Aldrich Ltd., RPMI 1640 obtained from Invitrogen Ltd, Paisley, Scotland). The yeast inocula were in the range 7.5×10^2-4×10^3 CFU/mL and the filamentous fungi approximately 8×10^3-1×10^5CFU/mL

Streptococcus pyogenes [2] = test: Murine skin infection model, topical treatment; format: in vivo; details: mice
Microsporum canis = test: MIC, CLSI microbroth dilution (filamentous fungi); format: cell-based; details: Microsporum canis - G.R. Micro collection
Experimental: (§3) M38-A Vol. 22 No. 16 Reference Method for Broth Dilution Antifungal Susceptibility Testing of Filamentous Fungi; Approved Standard.
as §2

Staphylococcus aureus = test: MIC, CLSI microbroth dilution (aerobic bacteria); format: cell-based; set-up: unit not given here; details: EMRSA1 Staphylococcus aureus (MRSA) - SSCmec type 3
Description: (§4) Cation-adjusted Mueller-Hinton broth (Oxoid Ltd., Basingstoke, UK and Trek Diagnostic Systems Ltd., East Grinstead, UK) (supplemented with 5% laked horse blood for Streptococcus spp., Corynebacterium jeikeium and Listeria monocytogenes) was used for aerobic bacteria, with an initial inoculum of approximately 10^5 colony-forming units (CFU)/mL.
(§5) To evaluate whether freezing affected the activity of the peptides some MIC determinations were repeated using plates containing freshly-prepared Mueller-Hinton broth.

Escherichia coli = test: MIC, CLSI microbroth dilution (aerobic bacteria); format: cell-based; set-up: unit not given beside the values
Description: as §4, §5

Enterococcus faecalis = test: MIC, CLSI microbroth dilution (aerobic bacteria); format: cell-based; set-up: unit not given beside the values
Description: as §4, §5

Pseudomonas aeruginosa = test: MIC, CLSI microbroth dilution (aerobic bacteria); format: cell-based; set-up: unit not given beside the values
Description: as §4, §5

Candida parapsilosis = test: MIC, CLSI microbroth dilution (yeasts); format: cell-based; set-up: unit not given beside the values
Experimental: as §1, §2

Candida albicans = test: MIC, CLSI microbroth dilution (yeasts); format: cell-based; set-up: unit not given beside the values
Experimental: as §1, §2

Enterococcus faecium = test: MIC, CLSI microbroth dilution (aerobic bacteria); format: cell-based
Description: as §4

Acinetobacter baumanii = test: MIC, CLSI microbroth dilution (aerobic bacteria); format: cell-based; details: Acinetobacter baumanii - antibiotic-susceptible clinical isolate
Description: as §4

Corynebacterium jeikeium = test: MIC, CLSI microbroth dilution (aerobic bacteria); format: cell-based
Description: as §4

Bacteroides fragilis = test: MIC, CLSI microbroth dilution (anaerobic bacteria); format: cell-based; set-up: unit not given here; details: Bacteroides fragilis - ATCC 25285, SBB (Table 2)
[3] = tested on: Trichophyton mentagrophytes; test: MIC, CLSI microbroth dilution (filamentous fungi); format: cell-based; set-up: unit not given beside the values; details: Trichophyton mentagrophytes - G.R. Micro collection
Experimental: as §3, §2

Aspergillus niger = test: MIC, CLSI microbroth dilution (filamentous fungi); format: cell-based; set-up: unit not given beside the values; details: Aspergillus niger - G.R. Micro collection
Experimental: as §3, §2

[4] = tested on: Trichophyton interdigitale; test: MIC, CLSI microbroth dilution (filamentous fungi); format: cell-based; set-up: unit not given beside the values; details: Trichophyton interdigitale - G.R. Micro collection
Experimental: as §3, §2

Haemophilus influenzae = test: MIC, CLSI microbroth dilution (Haemophilus test medium)
Eggerthella lenta = test: MIC, CLSI microbroth dilution (anaerobic bacteria); format: cell-based; set-up: unit not given here; details: Eggerthella lenta - ATCC 43055, SBB (Table 2)
[5] = tested on: Staphylococcus aureus FDA486; test: Murine skin infection model, topical treatment; format: in vivo; details: mice, cream or gel containing 2% (w/w), three topical treatments at three hourly intervals, compared to placebo
[6] = tested on: Staphylococcus epidermidis; test: MIC, CLSI microbroth dilution (aerobic bacteria); format: cell-based; set-up: unit not given beside the values; details: Staphylococcus epidermidis antibiotic susceptible clinical isolate
Description: as §4

Morganella morganii = test: MIC, CLSI microbroth dilution (aerobic bacteria); format: cell-based; set-up: unit not given beside the values; details: Morganella morganii - multi-drug resistant clinical isolate
Description: as §4

[7] = tested on: Streptococcus constellatus; test: MIC, CLSI microbroth dilution (aerobic bacteria); format: cell-based; set-up: unit not given beside the values
Description: as §4

Moraxella catarrhalis = test: MIC, CLSI microbroth dilution (aerobic bacteria); format: cell-based; set-up: unit not given beside the values; details: Moraxella catarrhalis - reduced fluoroquinolone susceptibility clinical
Description: as §4

Group C Streptococcus = test: MIC, CLSI microbroth dilution (aerobic bacteria); format: cell-based; set-up: unit not given beside the values
Description: as §4

Streptococcus pneumoniae = test: MIC, CLSI microbroth dilution (aerobic bacteria); format: cell-based; set-up: unit not given beside the values
Description: as §4

Group G Streptococcus = test: MIC, CLSI microbroth dilution (aerobic bacteria); format: cell-based; set-up: unit not given beside the values
Description: as §4

[8] = tested on: Stenotrophomonas maltophilia; test: MIC, CLSI microbroth dilution (aerobic bacteria); format: cell-based; set-up: unit not given beside the values; details: Stenotrophomonas maltophilia - antibiotic-susceptible clinical isolate
Description: as §4

[9] = tested on: Staphylococcus saprophyticus; test: MIC, CLSI microbroth dilution (aerobic bacteria); format: cell-based; set-up: unit not given beside the values; details: Staphylococcus saprophyticus - antibiotic susceptible clinical isolate
Description: as §4

Streptococcus bovis = test: MIC, CLSI microbroth dilution (aerobic bacteria); format: cell-based; set-up: unit not given beside the values
Description: as §4

Streptococcus oralis = test: MIC, CLSI microbroth dilution (aerobic bacteria); format: cell-based; set-up: unit not given beside the values
Description: as §4

Streptococcus pyogenes [10] = test: MIC, CLSI microbroth dilution (aerobic bacteria); format: cell-based; set-up: unit not given beside the values
Description: as §4

Klebsiella aerogenes = test: MIC, CLSI microbroth dilution (aerobic bacteria); format: cell-based; set-up: unit not given beside the values
Description: as §4

Streptococcus agalactiae = test: MIC, CLSI microbroth dilution (aerobic bacteria); format: cell-based; set-up: unit not given beside the values
Description: as §4

Enterobacter sp = test: MIC, CLSI microbroth dilution (aerobic bacteria); format: cell-based; set-up: unit not given beside the values; details: Enterobacter sp - multi-drug resistant clinical isolate
Description: as §4

Streptococcus sanguis = test: MIC, CLSI microbroth dilution (aerobic bacteria); format: cell-based; set-up: unit not given beside the values
Description: as §4

Streptococcus mitis = test: MIC, CLSI microbroth dilution (aerobic bacteria); format: cell-based; set-up: unit not given beside the values
Description: as §4

Listeria monocytogenes = test: MIC, CLSI microbroth dilution (aerobic bacteria); format: cell-based; set-up: unit not given beside the values; details: Listeria monocytogenes - antibiotic-susceptible clinical isolate
Description: as §4

CC(C)(C)c1cc(C(C)(C)C)c2[nH]c(C(C)(C)C)c(CC(NC(=O)C(N)CCCNC(=N)N)C(=O)NC(CCCNC(=N)N)C(=O)NCCc3ccccc3)c2c1 (centres unmarked) [Compound 2, 2,5,7-tri-tert-butyltryptophan]
MIC [1]: 8
number of colony forming units (CFUs) in skin sample (Streptococcus pyogenes [2]; 1% or 2% gel, three topical treatments, compared to placebo gel and bactroban): more effective at reducing the number of CFUs than the placebo gel or the bactroban
number of colony forming units (CFUs) in skin sample (Streptococcus pyogenes [2]; 2% gel compared to 1% gel): more effective than the gel containing only 1% of compound 2
MIC (Microsporum canis): 8
MIC (Staphylococcus aureus): 8
MIC (Escherichia coli; Escherichia coli - multi-drug resistant clinical isolate): 8
MIC (Escherichia coli; Escherichia coli ATCC25922 - antibiotic-susceptible type strain): 8
MIC (Escherichia coli; Escherichia coli ATCC32518 - β-lactamase positive type strain): 8
MIC (Escherichia coli; GN01 Escherichia coli ATCC 25922 type strain, repeat results (Table 2), Fresh MHB): 8
MIC (Escherichia coli; GN01 Escherichia coli ATCC 25922 type strain, repeat results (Table 2), Frozen MHB): 8
MIC (Enterococcus faecalis; Enterococcus faecalis high-level gentamicin-resistant clinical isolate): 8
MIC (Enterococcus faecalis; Enterococcus faecalis vancomycin-resistant (VanA) clinical isolate): 8
MIC (Enterococcus faecalis; Enterococcus faecalis vancomycin-resistant (VanB) clinical isolate): 16
MIC (Enterococcus faecalis; Enterococcus faecalis vancomycin-susceptible clinical isolate): 8
MIC (Enterococcus faecalis; GP11 Enterococcus faecalis - ATCC 29212 control strain, repeat results (Table 2), Frozen MHB): 8
MIC (Pseudomonas aeruginosa; GN10 Pseudomonas aeruginosa ATCC 27853 type strain, repeat results (Table 2), Fresh MHB): 8
MIC (Pseudomonas aeruginosa; GN10 Pseudomonas aeruginosa ATCC 27853 type strain, repeat results (Table 2), Frozen MHB): 8
MIC (Pseudomonas aeruginosa; Pseudomonas aeruginosa ATCC27853 - antibiotic-susceptible type): 8
MIC (Candida parapsilosis; Candida parapsilosis ATCC 22019, RPMI 1640 (Table 2)): 8
MIC (Candida parapsilosis; Candida parapsilosis ATCC90018 - reference strain): 16
MIC (Candida albicans; Candida albicans ATCC24433 - reference strain): 8
MIC (Candida albicans; Candida albicans ATCC90028 - reference strain): 8
MIC (Enterococcus faecium; Enterococcus faecium vancomycin-resistant (VanA) clinical isolate): 8
MIC (Enterococcus faecium; Enterococcus faecium vancomycin-susceptible clinical isolate): 8
MIC (Acinetobacter baumanii): 16
MIC (Corynebacterium jeikeium; Corynebacterium jeikeium - antibiotic-susceptible clinical isolate): 16
MIC (Corynebacterium jeikeium; Corynebacterium jeikeium - multi-drug resistant clinical isolate): 8
MIC (Bacteroides fragilis): 64
MIC [3]: 8
MIC (Aspergillus niger): 8
MIC [4]: 8
MIC (Haemophilus influenzae; Haemophilus influenzae - β-lactamase negative clinical isolate): 8
MIC (Haemophilus influenzae; Haemophilus influenzae - β-lactamase positive clinical isolate): 8
MIC (Haemophilus influenzae; Haemophilus influenzae β-lactamase negative ampicillin-resistant): 8
MIC (Eggerthella lenta): 32
number of colony forming units (CFUs) in skin sample [5]: reduced
MIC [6]: 8
MIC (Morganella morganii): 16
MIC ([7]; Streptococcus constellatus - antibiotic-susceptible clinical isolate): 32
MIC ([7]; Streptococcus constellatus - macrolide-resistant clinical isolate): 32
MIC (Moraxella catarrhalis): 8
MIC (Group C Streptococcus; Group C Streptococcus - antibiotic-susceptible clinical isolate): 16
MIC (Group C Streptococcus; Group C Streptococcus - macrolide-resistant clinical isolate): 32
MIC (Streptococcus pneumoniae; Streptococcus pneumoniae - ATCC 49619 antibiotic-susceptible control): 16
MIC (Streptococcus pneumoniae; Streptococcus pneumoniae - multi-drug resistant clinical isolate): 32
MIC (Streptococcus pneumoniae; Streptococcus pneumoniae - penicillin-resistant clinical isolate): 16
MIC (Streptococcus pneumoniae; Streptococcus pneumoniae - penicillin-susceptible clinical isolate): 32
MIC (Streptococcus pneumoniae; Streptococcus pneumoniae -penicillin-intermediate clinical isolate): 32
MIC (Group G Streptococcus; Group G Streptococcus - antibiotic-susceptible clinical isolate): 8
MIC (Group G Streptococcus; Group G Streptococcus - macrolide-resistant clinical isolate): 16
MIC [8]: 8
MIC [9]: 1
MIC (Streptococcus bovis; Streptococcus bovis - antibiotic-susceptible clinical isolate): 32
MIC (Streptococcus bovis; Streptococcus bovis - macrolide-resistant clinical isolate): 8
MIC (Streptococcus oralis; Streptococcus oralis - antibiotic-susceptible clinical isolate): 32
MIC (Streptococcus oralis; Streptococcus oralis - macrolide-resistant clinical isolate): 32
MIC (Streptococcus pyogenes [10]; Streptococcus pyogenes - Macrolide (M-type) resistance clinical isolate): 16
MIC (Streptococcus pyogenes [10]; Streptococcus pyogenes - Macrolide (MLS) resistant clinical isolate): 16
MIC (Klebsiella aerogenes; Klebsiella aerogenes - multi-drug resistant clinical isolate): 16
MIC (Klebsiella aerogenes; Klebsiella aerogenes NCTC11228 - antibiotic-susceptible type strain): 16
MIC (Streptococcus agalactiae; Streptococcus agalactiae - antibiotic-susceptible clinical isolate): 8
MIC (Streptococcus agalactiae; Streptococcus agalactiae - macrolide-resistant clinical isolate): 16
MIC (Enterobacter sp): 16
MIC (Streptococcus sanguis; Streptococcus sanguis - antibiotic-susceptible clinical isolate): 32
MIC (Streptococcus sanguis; Streptococcus sanguis - macrolide-resistant clinical isolate): 32
MIC (Streptococcus mitis; Streptococcus mitis - antibiotic-susceptible clinical isolate): 16
MIC (Streptococcus mitis; Streptococcus mitis - macrolide-resistant clinical isolate): 32
MIC (Listeria monocytogenes): 16
